These are yes or no findings as the source states them, for the method shown. In cells and extracts the contact can be indirect. Here binding means that the protein was enriched with, or labelled near, the bait; the list need not be complete. No binding means not detected with the bait.
Columns and labels:
Assay in all cases: proximity labelling; myc-SHP2-TurboID (WT or mutant) transfected in SHP2 knock-out HEK 293 cells; 100 uM biotin for 10 min at 37 C, without or with 100 ng/mL EGF (for WT also after 4 h with 1 uM TNO155); non-denaturing lysis, streptavidin magnetic beads, LC-MS/MS; hits: log2 fold-change >1 and p <0.05 over a TurboID-only control, or direct comparison of two samples
[1] = molecular target: myc-SHP2^Y279C-TurboID (human) (UniProt Q06124)
[2] = molecular target: myc-SHP2^T52S-TurboID (human) (UniProt Q06124)
[3] = molecular target: myc-SHP2^R138Q-TurboID (human) (UniProt Q06124)
[4] = molecular target: myc-SHP2^T468M-TurboID (human) (UniProt Q06124)
[5] = molecular target: myc-SHP2^E76K-TurboID (human) (UniProt Q06124)
[6] = molecular target: myc-SHP2^WT-TurboID (human) (UniProt Q06124)
[7] = molecular target: myc-SHP2^E139D-TurboID (human) (UniProt Q06124)
[8] = molecular target: myc-SHP2^Q510K-TurboID (human) (UniProt Q06124)
[9] = molecular target: myc-SHP2^T42A-TurboID (human) (UniProt Q06124)
[10] = molecular target: myc-SHP2^T507K-TurboID (human) (UniProt Q06124)
[11] = molecular target: myc-SHP2^Q510E-TurboID (human) (UniProt Q06124)

Protein sequences, listed by entry. Tags and fused reporters are not part of them. Residues count along the entry.
UniProt Q15388: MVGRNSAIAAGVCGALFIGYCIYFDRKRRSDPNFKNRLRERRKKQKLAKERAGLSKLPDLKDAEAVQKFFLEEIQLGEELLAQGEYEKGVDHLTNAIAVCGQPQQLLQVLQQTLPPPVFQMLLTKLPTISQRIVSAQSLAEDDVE
UniProt P38646, residues 47-679: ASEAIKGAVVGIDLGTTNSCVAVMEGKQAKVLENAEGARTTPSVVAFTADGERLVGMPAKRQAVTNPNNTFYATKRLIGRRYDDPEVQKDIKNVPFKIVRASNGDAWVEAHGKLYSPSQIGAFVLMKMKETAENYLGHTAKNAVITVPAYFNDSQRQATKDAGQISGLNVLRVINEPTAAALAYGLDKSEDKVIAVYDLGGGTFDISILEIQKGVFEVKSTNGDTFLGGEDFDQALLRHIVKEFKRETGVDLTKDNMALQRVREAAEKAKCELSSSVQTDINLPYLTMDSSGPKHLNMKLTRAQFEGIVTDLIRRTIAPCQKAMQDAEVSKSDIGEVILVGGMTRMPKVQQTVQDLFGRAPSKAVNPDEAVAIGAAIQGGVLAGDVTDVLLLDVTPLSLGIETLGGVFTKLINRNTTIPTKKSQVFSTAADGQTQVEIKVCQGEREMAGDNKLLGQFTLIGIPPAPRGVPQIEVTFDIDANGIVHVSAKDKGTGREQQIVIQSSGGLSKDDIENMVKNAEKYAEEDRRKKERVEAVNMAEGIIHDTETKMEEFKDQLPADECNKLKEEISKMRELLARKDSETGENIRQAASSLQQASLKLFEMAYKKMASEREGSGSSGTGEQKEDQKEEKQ

Measured: binding

NDUFB8 (from UniProt O95169 29-186)
no binding: [1] | [2] | [3] | [4] | [5] | [6] | [7] | [8] | [9] | [10] | [11]

Tom20 (from UniProt Q15388 1-145)
no binding: [6]

mortalin (HSPA9) (from UniProt P38646 47-679)
no binding: [1] | [2] | [3] | [4] | [5] | [6] | [7] | [8] | [9] | [10] | [11]

From PMC12894930
